# Measured values taken from patent publication US20180346592A1.
# Protein sequences, listed by entry. Tags and fused reporters are not part of them. Lines headed by an entry give the natural chain unless they say otherwise; changes in a name come on top.
# UniProt P51654: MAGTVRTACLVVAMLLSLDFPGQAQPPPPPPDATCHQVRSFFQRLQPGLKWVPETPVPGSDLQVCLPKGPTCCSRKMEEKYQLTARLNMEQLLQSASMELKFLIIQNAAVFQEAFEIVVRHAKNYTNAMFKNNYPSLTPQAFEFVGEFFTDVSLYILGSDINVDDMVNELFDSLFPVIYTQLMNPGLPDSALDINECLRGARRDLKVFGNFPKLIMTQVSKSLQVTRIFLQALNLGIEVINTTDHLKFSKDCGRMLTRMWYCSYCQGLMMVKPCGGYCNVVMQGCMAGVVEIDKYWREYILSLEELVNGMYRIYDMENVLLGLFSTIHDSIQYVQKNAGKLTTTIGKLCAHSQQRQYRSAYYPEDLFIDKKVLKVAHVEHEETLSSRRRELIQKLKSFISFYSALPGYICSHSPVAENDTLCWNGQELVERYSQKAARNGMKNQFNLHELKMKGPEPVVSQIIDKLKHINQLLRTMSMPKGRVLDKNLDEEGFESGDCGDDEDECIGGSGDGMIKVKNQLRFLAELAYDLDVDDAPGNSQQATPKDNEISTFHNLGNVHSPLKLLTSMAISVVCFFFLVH
# Substitutions are numbered along the chain they refer to. Results are given in words; binding and its absence hold for the method and conditions named. Some binding calls cover weakened binding; strength is not graded here.
# B1: clone GX259 (scFv, V domains shown)
# VH: QVQLVQSGAEVKKPGESLRISCKASGYKFTNYWIAWVRQMPGKGLEWMGIIYPGDSDTRYSPSLQGQVTISADKSITTAYLQWSSLRASDTAMYYCATIGLREGRWGQGTLVTVSS
# VL: AIQMTQSPSSLSASVGDRVTITCRASQGISNYLAWYQQKPGKAPKLLIYDASNLETGVPSRFSGSGSGTDFTFTISSLQPEDIATYYCQQYDNLPFGQGTKLEIKR
# B2: clone GX264 (scFv, V domains shown)
# VH: QLQLQESGPGLVKPSETLSLTCTVSGGSISSSSYYWGWIRQPPGKGLEWIGSIYYSGSTYYNPSLKSRVTISVDTSKNQFSLKLSSVTAADTAVYYCARLRWYSYGYFDVRGGYYFDYWGRGTLVTVSS
# VL: QSVLTQPPSVSAASGQKVTVSCSGSSSNIGKNGVSWHQQLPGTAPKLLIYENNRRPSEIPDRFSGSKSGTSATLAITGLQTGDEADYYCGTWDSSLNAGVFGTGTKVTVLG
# B3: clone GS001 (scFv, V domains shown)
# VH: EVQLLESGGGLVQPGGSLRLSCAASGFTFSSYSMSWVRQAPGKGLEWVSGISPSGGNKYYADSVKGRFTISRDNSKNTLYLQMNSLRAEDTAVYYCARALLGCKSAYCYYAMDVWGQGTLVTVSS
# VL: QSVLTQPPSASGTPGQRVTISCTGSSSNIGSNAVNWYQQLPGTAPKLLIYADSKRPSGVPDRFSGSKSGTSASLAISGLRSEDEADYYCGSWDSSLSGYVFGGGTKLTVLG
# B4: clone GS002 (scFv, V domains shown)
# VH: EVQLLESGGGLVQPGGSLRLSCAASGFTFSGYSMSWVRQAPGKGLEWVSSISPGGSSTYYADSVKGRFTISRDNSKNTLYLQMSSLRAEDTAVYYCARYRVWHMTTGDYYSNAMDVWGQGTLVTVSS
# VL: B3 VL with N35S, A51D, S53N, P60L, S91T, S94D
# B5: clone GS004 (scFv, V domains shown)
# VH: EVQLLESGGGLVQPGGSLRLSCAVSGFTFSNYSMSWVRQAPGKGLEWVSAISPGSSNKYYADSVKGRFTISRDNSKNTLYLQMNSLRAEDTAVYYCARYRVWAHSASSSYSNAMDVWGQGTLVTVSS
# VL: B3 VL with T23S, S31N, A33D, N35S, A51S, K54Q, S94D, S97N
# B6: clone GS009 (scFv, V domains shown)
# VH: EVQLLESGGGLVQPGGSLRLSCAASGFTFSNYSMSWVRLAPGKGLEWVSVISPSGGNTYYADSVKGRFTISRDNSKNTLYLQMNSLRAEHTAVYYCARYRVKQMLNQRSYSNAMDVWGQGTLVTVSS
# VL: B3 VL with S31N, A33Y, N35S, A51D, K54Q, S94A
# B7: clone GS010 (scFv, V domains shown)
# VH: EVQLLESGGGLVQPGGSLRLSCAASGFTFSNYSMSWVRQAPGKGLEWVSVISPSSGSIYYADSVKGRFTISRDNSKNTLYLQMNSLRAEDTAVYYCARYRVRQLKHTRSYADAMDVWGQGTLVTVSS
# VL: B3 VL with T13A, T23S, N35S, D52N, K54H, A85T, G90A
# B8: clone GS005 (scFv, V domains shown)
# VH: EVQLLESGGGLVQPGGSLRLSCAASGFTFSNYAMSWVRQAPGKGLEWVSVISPDSSSKYYADSVKGRFTISRDNSKNTLYLQMNSLRAEDTAVYYCARAAVRRYGPSPYYYYAMDVWGQGTLVTVSS
# VL: B3 VL with S31N, A33Y, N35T, K54H, G90A, S91T, S94Y
# B9: clone GS007 (scFv, V domains shown)
# VH: EVQLLESGGGLVQPGGSLRLSCAASGFTFSNYSMSWVRQAPGKGLEWVSVISHDGRSKYYADSVKGRFAISRDNSKNTLYLQMNSLRAEDTAVYYCAKFRVWKRTNAHSYANAMDVWGQGTLVTVSS
# VL: B3 VL with V18A, A33S, N35S, D52N, K54N, S91T, S94A, G98A
# B10: clone GS006 (scFv, V domains shown)
# VH: EVQLLESGGGLVQPGGSLRLSCAASGFTFSGYSMSWVRQAPGKGLEWVSAISPGGGSKYYADSVRGRFTVSRDNSKNTLYLQMNSLRAEDTAVYYCARYRVQKSAKNVYSSNGMDVWGQGTLVTVSS
# VL: B3 VL with S9P, T23S, S31N, A51Y, K54N, S91A, G98A
# B11: clone GS008 (scFv, V domains shown)
# VH: EVQLLESGGGLVQPGGSLRLSCAASGFTFSNYAMSWVRQAPGKGLEWVSVISPDNGSTYYADSVKGRFTISRDNSKNTLYLQMNSLRAEDTAVYYCARARVHCRRDQCYSYGMDVWGQGTLVTVSS
# VL: B3 VL with A33N, N35T, D52N, K54Q, S91A, S97N
# B12: clone GX247 (scFv, V domains shown)
# VH: QVQLVQSGAEVKKPGASVKVSCKASGYTFTSYYMHWVRQAPGQGLEWMGIINPSGGSTSYAQKFQGRVTMTRDTSTSTVYMELSSLRSEDTAVYYCARTRKGSGYSYGYGMDVWGQGTTVTVSS
# VL: SYELTQPPSVSVSPGQTASITCSGDKLGNKYVSWYQQKPGQSPVLVIYQDNKRPSGIPERFSGSNSGNTATLTISGTQAMDEAGYYCQTWDSSVVFGGGTKLTVLG
# B13: clone GX245 (scFv, V domains shown)
# VH: QVQLVESGGGLVKPGGSLRLSCAASGFTFSDYYMSWIRQAPGKGLEWVSYISSSGSTIYYADSVKGRFTISRDNAKNSLYLQMNSLRAEDTAVYYCARVSDDSPYWGQGTLVTVSS
# VL: VIWMTQSPSSLSASVGDRVTITCQASQDISNYLNWYQQKPGKAPKLLIYDASNLETGVPSRFSGSGSGTDFTFTISSLQPEDIATYYCQQYDNLLALTFGGGTKLEIKR
# B14: clone GX253 (scFv, V domains shown)
# VH: B13 VH with Q1E, S56T, N77K, S100R, D102S, P104G, Y105F, Q108R
# VL: QSVLTQPPSVSAAPGQKVTISCSGSSSNIGNNYVSWYQQLPGTAPKLLIYDNNKRPSGIPDRFSGSKSGTSATLGITGLQTGDEADYYCGTWDSSLSAWVVGGGTKLTVLG
# B15: clone GX263 (scFv, V domains shown)
# VH: EVQLVESGGGLVKPGGSLRLSCAASGFTFSSYSMNWVRQAPGKGLEWVSSISSSSSYIYYADSVKGRFTISRDNAKNSLYLQMNSLRAEDTAVYYCARVTPYYYYGMDVWGQGTTVTVSS
# VL: B14 VL with L4V, N52S, S57P, T91A, W99V, V101F
# B16: clone GX270 (scFv, V domains shown)
# VH: QVQLVQSGAEVKKPGASVKVSCKTSGYTFTSSYMHWVRQAPGQGLEWMGIINPNSRGTNYAQKFQGRVTMTSDTSISTAYMELSSLISDDTAVYYCASSSGDYPDYWGQGTLVTVSS
# VL: SYELTQPPSVSVSPGQTARIACSGDALPKHYAYWYQQKSGQAPVLVVYEDKKRPAGIPERFSGSSSGTVATLTISGAQVEDEAHYYCYSTDTSGNHRVFGGGTKLTVLG
# B17: clone GX107 (scFv, V domains shown)
# VH: QMQLVQSGAEVKKPGASVKVSCKASGYTFTSYYMHWVRQAPGQGLEWMGIINPSGGSTSYAQKFQGRVTMTRDTSTSTVYMELSSLRSEDTAVYYCARSHGDYPEDYWGQGTLVTVSS
# VL: YELTQPPSVSVSPGQTARIACSGDALPKHYAYWYQQKSGQAPVLVVYEDKKRPAGIPERFSGSSSGTVATLTISGAQVEDEAHYYCYSTDTSGNHRVFGGGTKLTVLG
# Target: human GPC3 (GPC3 antigen coated for panning and ELISA) (human) (UniProt P51654)
# Assay: ELISA, clone culture supernatant on GPC3-coated plate
row,binding,Binder
1,binds,B1
2,binds,B2
3,binds,B3
4,binds,B4
5,binds,B5
6,binds,B6
7,binds,B7
8,binds,B8
9,binds,B9
10,binds,B10
11,binds,B11
12,binds,B12
13,binds,B13
14,binds,B14
15,binds,B15
16,binds,B16
17,binds,B17
